Measured data: PubChem BioAssay AID1259308 (NCATS, 2017)
Aim: 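Knock-downs that increase output of a recombinant reporter protein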 (primary screen). Cells: human HEK293 embryonic kidney cells stably expressing firefly luciferase (HEK-CMV-Luc2-Hygro). Reagents: single siRNA against human genes, 0.8 pmol siRNA per well. Time to read-out: 72 h. Measurement: 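Luciferase light (ONE-Glo) measured on one replicate plate set and viability (CellTiter-Glo) on the other, scaled to a negative control siRNA, with robust z-scores and luciferase per cell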. Reading the numbers: total luciferase, z-score and total luciferase, % of control: higher = more reporter protein produced; luciferase per cell, z-score: higher = more reporter output per viable cell. Active means: 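Active when the median/MAD z-score for overall luciferase is greater than 3; a gene was taken forward for validation with new siRNAs if at least two of its three siRNAs passed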. Calls: active = raised luciferase; inactive = no rise.
Shown is one part, drawn at random, of about 59,000 reagents. About 1,510 of them (2.6%) count as active. 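Calls use total luciferase alone and ignore viability, so some active siRNAs may act by altering cell number.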 The numbers tell different reagents against one gene apart. Not all columns of the deposit are shown.

gene knocked down	reagent no.	total luciferase, z-score	total luciferase, % of control	luciferase per cell, z-score	activity call
ZNF346 (zinc finger protein 346)	1	1.33	108	0.639	inactive
ZNF346 (zinc finger protein 346)	2	1.24	106	0.393	inactive
ZNF346 (zinc finger protein 346)	3	-1.62	49.6	-1.92	inactive
PRAME-AS (PRAME antisense RNA)	1	-1.95	43.2	-1.63	inactive
PRAME-AS (PRAME antisense RNA)	2	0.109	84.1	0.0349	inactive
PRAME-AS (PRAME antisense RNA)	3	2.66	135	1.33	inactive
DDOST	1	-1.39	54.3	-1.94	inactive
DDOST	2	6.04	202	3.89	active
DDOST	3	1.73	116	1.54	inactive
PDE11A (phosphodiesterase 11A)	1	-0.0441	81	-0.131	inactive
PDE11A (phosphodiesterase 11A)	2	-0.391	74.1	-0.292	inactive
PDE11A (phosphodiesterase 11A)	3	0.664	95.1	0.528	inactive
PIK3IP1 (phosphoinositide-3-kinase interacting protein 1)	1	1.12	104	1.45	inactive
PIK3IP1 (phosphoinositide-3-kinase interacting protein 1)	2	0.97	101	0.931	inactive
PIK3IP1 (phosphoinositide-3-kinase interacting protein 1)	3	0.486	91.6	0.716	inactive
VASH2 (vasohibin 2)	1	-0.106	79.8	-0.131	inactive
VASH2 (vasohibin 2)	2	1.67	115	1.98	inactive
VASH2 (vasohibin 2)	3	0.126	84.4	-0.0232	inactive

Sorted by “total luciferase, % of control” (descending): some entries from above
gene knocked down	reagent no.	total luciferase, z-score	total luciferase, % of control	luciferase per cell, z-score	activity call
PDE11A (phosphodiesterase 11A)	1	-0.0441	81	-0.131	inactive
PDE11A (phosphodiesterase 11A)	2	-0.391	74.1	-0.292	inactive

More reagents follow:
gene knocked down	reagent no.	total luciferase, z-score	total luciferase, % of control	luciferase per cell, z-score	activity call
GLUD1 (glutamate dehydrogenase 1)	1	1.41	110	0.799	inactive
GLUD1 (glutamate dehydrogenase 1)	2	0.681	95.4	-0.264	inactive
GLUD1 (glutamate dehydrogenase 1)	3	-1.12	59.5	-0.994	inactive
TMEM217 (transmembrane protein 217)	1	0.532	92.5	1.53	inactive
TMEM217 (transmembrane protein 217)	2	-0.0437	81	-0.136	inactive
TMEM217 (transmembrane protein 217)	3	-0.731	67.3	-1.39	inactive
CPZ (carboxypeptidase Z)	1	0.467	91.2	0.91	inactive
CPZ (carboxypeptidase Z)	2	1.43	110	1.35	inactive
CPZ (carboxypeptidase Z)	3	1.06	103	0.786	inactive
SLC68A1	1	1.41	110	1.07	inactive
SLC68A1	2	2.68	135	1.98	inactive
SLC68A1	3	3.02	142	2.91	active
DIO2 (iodothyronine deiodinase 2)	1	0.475	91.3	0.304	inactive
DIO2 (iodothyronine deiodinase 2)	2	-0.845	65.1	-0.866	inactive
DIO2 (iodothyronine deiodinase 2)	3	1.56	113	1.98	inactive
IRX4 (iroquois homeobox 4)	1	-0.23	77.3	-0.0839	inactive
IRX4 (iroquois homeobox 4)	2	-0.121	79.5	-0.483	inactive
IRX4 (iroquois homeobox 4)	3	2.65	135	2.9	inactive
LSP1P4 (LSP1 pseudogene 4)	1	-0.654	68.9	-0.444	inactive
LSP1P4 (LSP1 pseudogene 4)	2	0.78	97.4	-0.179	inactive
LSP1P4 (LSP1 pseudogene 4)	3	0.158	85	-0.295	inactive
